This passage reports GFP- results from the supplement of paper PMC11060735.

Each structure is given as a SMILES string. “And” between values parts separate entries of the source, which are not always exact repeats. Equal values may be shown once. Where a name gives a salt, the structure may show the parent alone. ± gives the standard deviation of the averaged measurements. The full ranking holds about 1,800 compounds; the median of “GFP- (p16Ink4a-) cell count relative to negative-control wells” is about 0.99, and the lowest 2% start at about 0.5. This is one part of the list.

The experiment deals with mouse p16Ink4a+/- lung fibroblasts (INKBRITE, bleomycin-injured). The experiment can be described thus: GFP- (p16Ink4a-) cell count relative to negative-control wells (fold of vehicle); higher = more p16Ink4a- cells surviving. Conditions: 1 µM; 3 days.
`O=C(CCCN1CC=C(n2c(O)nc3ccccc32)CC1)c1ccc(F)cc1` [Droperidol] yielded a GFP- of 1.01. Take `C[C@@H](Oc1cc(-n2cnc3ccc(CN4CCN(C)CC4)cc32)sc1C(N)=O)c1ccccc1C(F)(F)F`: the GFP- came to 0.767. In the case of `Cc1ccc(S(=O)(=O)n2c(N)nc3ccccc32)cc1` [Nodinitib-1], the GFP- stood at 0.996. In turn, `C[C@]12CC[C@@H]3c4ccc(O)cc4CC[C@H]3[C@@H]1CC[C@@H]2O` [Estradiol] yielded a GFP- of 1.04. The same measure for `Clc1ccc(CSC(Cn2ccnc2)c2ccc(Cl)cc2Cl)cc1` (stereo not given) [Sulconazole]: 1.03; for `COc1cc2nccc(Oc3ccc(NC(=O)C4(C(=O)Nc5ccc(F)cc5)CC4)cc3)c2cc1OC` [Cabozantinib]: 0.824; for `OCCOCCN1CCN(C(c2ccccc2)c2ccc(Cl)cc2)CC1` (stereo not given) [Hydroxyzine]: 0.883. The molecule `Cc1cc(Nc2cc(N3CCN(C)CC3)nc(Sc3ccc(NC(=O)C4CC4)cc3)n2)n[nH]1` registered a GFP- of 0.706 ± 0.081. As to `O=C(Nc1cc(C(F)(F)F)cc(C(F)(F)F)c1)c1cc(Cl)ccc1O`, the GFP- stood at 1.16. The same measure for `C=CCc1cccc(/C=N/NC(=O)CN2CCN(Cc3ccccc3)CC2)c1O`: 0.654.

`COc1cc2nccc(Oc3ccc(NC(=O)NC4CC4)c(Cl)c3)c2cc1C(N)=O` [Lenvatinib] came in with a GFP- of 0.982. As for `Nc1ccc(S(N)(=O)=O)cc1` [Sulfanilamide], the GFP- amounted to 0.957. Turning to `CCc1nc(-c2cccc(C)c2)c(-c2ccnc(NC(=O)c3ccccc3)c2)s1`, the GFP- turned out to be 0.996.

`CN1CCCC(n2nc(Cc3ccc(Cl)cc3)c3ccccc3c2=O)CC1` (stereo not given) [Azelastine, Azelastine Hydrochloride]: the GFP- was 1.

As to `NC(=O)OCC(COC(N)=O)c1ccccc1` [Felbamate], the GFP- came out at 1.08. Regarding `CC(C)(Oc1ccc(C2CC2(Cl)Cl)cc1)C(=O)O` (stereo not given) [Ciprofibrate], the GFP- was 0.748. `Nc1ccc(S(=O)(=O)Nc2nccs2)cc1` [Sulfathiazole] had a GFP- of 0.866. For `Oc1ccc([C@H]2COc3cc(O)ccc3C2)cc1` [Equol] the value was 1.06; for `COc1ccc([C@@H]2Sc3ccccc3N(CCN(C)C)C(=O)[C@@H]2OC(C)=O)cc1` [Diltiazem], 1.04. `COc1ccc2[nH]cc(CCNC(C)=O)c2c1` [Melatonin] registered a GFP- of 1.3. As for `Clc1ccc(C(Cn2ccnc2)OCc2ccsc2Cl)c(Cl)c1` (stereo not given) [Tioconazole], the GFP- stood at 0.993. Take `CSc1nc2cc(Cl)c(Oc3cccc(Cl)c3Cl)cc2[nH]1` [Triclabendazole]: the GFP- is 0.963. For `O=C(Oc1cc(S(=O)(=O)c2ccccc2)ccc1[N+](=O)[O-])c1ccc(Cl)cc1` the value was 0.709; for `Cc1cc(C2CCCCC2)n(O)c(=O)c1` [Ciclopirox], 0.699 and 0.754.

In turn, `NC(=O)c1cnccn1` [Pyrazinamide] had a GFP- of 1.08.
